Results published in patent US12319694B2, “Heterocyclic nitrogen-containing purine derivatives, pharmaceutical preparations containing these derivatives and their use in neuroprotection” (UNIVERZITA PALACKEHO, priority 2019, dated 2025).
At least one structure is not confirmed: it was looked up by name or label, or the drawing left a doubt.

Experiment: Radical scavenging activity by ORAC assay
Conditions: NAUC relative to trolox; mean ± SD (n = 3)
Method: The ability of compounds to scavenge free radicals in vitro was determined by Oxygen Radical Absorbance Capacity (ORAC) method. In brief, fluorescein (100 μL, […]) and 25 μL of tested compound solution were added into each working well in a 96-well microplate preincubated at 37° C. Thereafter, 25 μL of 250 mM 2,2′-azobis(2-amidino-propan)dihydrochloride (AAPH) was quickly added, microplate was shaken for 5 s and the fluorescence (Ex. 485 nm, Em. 510 nm) was read every 3 min over 90 min by using microplate reader Infinite 200 (TECAN, Switzerland). The NAUC value (Net Area Under Curve) was used to express antioxidant activity relative to trolox (hydrophilic equivalent of vitamin E postulated as a standard). Substances with an ORAC value greater than 0 actively trap free radicals.

## Clc1cccc(Cl)c1Cn1cnc2c(N3CCCC3)nc(N3CCCC3)nc21 [Compound 74, 9-(2,6-Dichlorobenzyl)-2,6-di(pyrrolidine-1-yl)-9H-purine]
  ORAC (compound/trolox): 0.029 ± 0.004 compound/trolox
